Literature values as cited in patent US20120088773A1, “Circadian rhythm modulation” (priority 2010, published 2012).
Some results were stated once for a whole list of compounds, not compound by compound. At least one structure is not confirmed: it was looked up by name or label, or the drawing left a doubt.

How the values were obtained:
[1] = according to the CDC
[2] = in vivo

C=C1CC[C@H](O)C/C1=C/C=C1\CCC[C@]2(C)[C@@H]([C@H](C)/C=C/[C@H](C)C(C)C)CC[C@@H]12 [vitamin D2]
half-life [1]: 48 to 170 h | doses at which vitamin D toxicity has been reported [2]: ≥ 2000 IU/day
